Laboratory results reported in PubChem BioAssay AID2685 (National Center for Advancing Translational Sciences (NCATS), 2010).
The other results are listed elsewhere or left out. Further columns of the screen follow, without active or inactive calls. Most of these compounds were active or inconclusive in the main read-out, so they are no random draw. Potencies come from curve fits of mixed quality, noted in brackets.

Experiment: qHTS Assay for Lipid Storage Modulators in Drosophila S3 Cells;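 as to cell number change: cells counted by Cell Tracker Red CMTPX staining in the red channel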
Details: BODIPY lipid droplet fluorescence, 18-24 h; for cell number change: measured here: cell count max response, cells fed with added oleic acid
How it was run: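 Drosophila S3 cells loaded with oleic acid (400 uM, as added) and compounds at several concentrations; lipid droplets imaged by 488-nm laser-scanning cytometry, 500–530 nm intensity and object ratio to cell channel. Percent activity normalized to 20 uM Triacsin C.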

[1] = measured here: cell number channel AC50, cells fed with added oleic acid
[2] = measured here: lipid fluorescence (Fed channel) AC50, cells fed with added oleic acid

| SMILES | cell number change [%] | AC50 [1] | AC50 [2] |
| --- | --- | --- | --- |
| CC1CCC2C(=O)N(c3cccc(C(=O)Nc4ccc(F)cc4)c3)C(=O)C2C1 (stereo unspecified) | -39.6 | 29.1 µM [falling, single point] | 29.1 µM [falling, single point] |
| CCOc1ccc(OCC)c(NC(=O)C2CCCN(S(=O)(=O)c3cccs3)C2)c1 (stereo unspecified) | – | 4.11 µM [rising, single point] | 6.51 µM [rising, single point] |
| O=C(Nc1ccc(S(=O)(=O)N2CCOCC2)cc1)c1ccc([N+](=O)[O-])cc1Cl | -45.1 | 29.1 µM [falling, single point] | – |
| CCc1ccc(/C=C2/SC(=S)N(CC(=O)Nc3nc4ccccc4s3)C2=O)cc1 | -1.9 | – | 1.64 µM [rising, partial curve] |
| O=C(/C=C/c1c(Cl)nc2ccccn12)Nc1ccc(F)cc1 | -34.8 | – | – |
| COC(=O)c1c(C)oc2ccc(OC(=O)N3CCOCC3)cc12 | 32 | 11.6 µM [rising, single point] | – |
| O=C(NCCN1CCOCC1)c1cccc(S(=O)(=O)Nc2cc(Cl)ccc2Cl)c1 | 14 | – | – |
| Cc1ccc2nc(-c3ccccc3)cc(C(=O)NNC(=O)c3csc(N4CCOCC4)n3)c2c1 | -33.4 | 29.1 µM [falling, single point] | 18.4 µM [falling, single point] |
| CC(C)(C)c1ccc(OCC(=O)NN2Cc3ccccc3C2=N)cc1 | – | – | 0.58 µM [falling, single point] |
| CC(C)C[C@@H](CO)N(Cc1ccccc1)S(=O)(=O)N(Cc1ccccc1)[C@H](CO)CC(C)C | -87.8 | 25.9 µM [falling, partial curve, poor fit] | 29.1 µM [falling, single point] |
| Cc1cc(C)n(-c2ccc(N3CCOCC3)nn2)n1 | -7.94 | – | – |
| CCCCCCCn1ccc(=N)cc1 | -72.2 | 29.1 µM [falling, single point] | 29.1 µM [falling, single point] |
| Cc1ccc2c(c1)N(CC(=O)NC(C)CCc1ccccc1)C(=O)c1cccnc1O2 (stereo unspecified) | -8.07 | – | 0.116 µM [rising, full curve, poor fit] |
| CCOc1ccc(NC(=O)CSc2nc3ccccc3c(=O)n2CCCC(=O)NCC2CCCO2)cc1 (stereo unspecified) | 18 | 0.13 µM [rising, full curve, poor fit] | – |
| O=C(CSc1ccccn1)Nc1cccc2ccccc12 | 1.67 | 5.8 µM [falling, single point] | 5.8 µM [falling, single point] |

A second format for some results above.
SMILES,cell number change [%],AC50 [1],AC50 [2]
CC(C)(C)c1ccc(OCC(=O)NN2Cc3ccccc3C2=N)cc1,–,–,"0.58 µM [falling, single point]"
CC(C)C[C@@H](CO)N(Cc1ccccc1)S(=O)(=O)N(Cc1ccccc1)[C@H](CO)CC(C)C,-87.8,"25.9 µM [falling, partial curve, poor fit]","29.1 µM [falling, single point]"
